# Among all 220,000 compounds or so, about 770 (0.35%) were called active. Inconclusive results, whose numbers are uncertain, are shown with a selection of clear calls. No stated cut-off is given here; in the data, active means binding response below about 49% or above about 150%; inconclusive means no clear call, values can overlap the other calls; inactive means in between.
# Protein sequences, listed by entry. Tags and fused reporters are not part of them.
# UniProt P09471, whole entry, looked up: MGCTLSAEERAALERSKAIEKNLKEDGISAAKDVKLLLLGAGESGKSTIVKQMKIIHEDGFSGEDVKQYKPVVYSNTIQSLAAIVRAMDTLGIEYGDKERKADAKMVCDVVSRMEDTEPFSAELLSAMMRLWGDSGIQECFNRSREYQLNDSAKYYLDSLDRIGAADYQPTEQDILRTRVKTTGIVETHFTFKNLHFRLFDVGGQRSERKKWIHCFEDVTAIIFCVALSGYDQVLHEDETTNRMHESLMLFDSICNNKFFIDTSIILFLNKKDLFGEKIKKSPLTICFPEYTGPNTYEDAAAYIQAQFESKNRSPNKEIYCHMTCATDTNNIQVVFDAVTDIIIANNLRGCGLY
# Molecular target: Guanine nucleotide-binding protein G(o) subunit alpha (Homo sapiens) (UniProt P09471)
# Assay: RGS7-Galphao binding modulators, primary screen, biochemical, multiplexed bead flow cytometry (AID 1439);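 further: fluorescent Galphao held in activated GDP-AlF4 state binding bead-coupled RGS7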
# Details: at 10 µM, actives lie on both sides
row,Structure (SMILES),binding response (% of control)
1,CCNC(=S)NNC(=O)CSc1nc2ccccc2n1C,inconclusive: 171%
2,CN(C(=O)c1cccs1)c1ccc(OCC(=O)Nc2ccc(C(=O)O)cc2)cc1,inconclusive: 78%
3,c1ccc(-n2cccc2)c(N2CCCCC2)c1,inconclusive: 267%
4,COc1cc(/C=C/C(=O)OCC(=O)NC(=O)NC(C)C)cc(S(=O)(=O)N2CCc3ccccc32)c1OC,inconclusive: 108%
5,CC1CCc2c(sc3ncn(N)c(=N)c23)C1 (configuration not stated),inconclusive: 101%
6,CN(Cc1ccccc1)C(=O)COC(=O)CCNC(=O)c1ccccc1Cl,inconclusive: 103%
7,COC(=O)c1sccc1NC(=O)/C=C/c1ccc(Cl)cc1,inactive: 101%
8,CCn1nc(C(=O)Nc2ccc(S(=O)(=O)Nc3ncccn3)cc2)c2ccccc2c1=O,inconclusive: 113%
9,CCC(C)(C)n1nnnc1CN1CCSCC1,inactive: 129%
10,CC(C)(C)NC(=O)N1CCN(c2ncccc2C(F)(F)F)CC1,inconclusive: 126%
11,CC1(C)CC2(CCO1)OC(=O)CC2C(=O)Nc1c(Cl)cccc1Cl (configuration not stated),inconclusive: 150%
12,CCNC(=O)NC(=O)COC(=O)CCCSc1nc2ccccc2s1,inactive: 101%
13,CC(C)c1ccc(Nc2nnns2)cc1,inconclusive: 89.8%
14,CC12CCC(c3c(C(=O)N4CCOCC4)nn(-c4ccccc4)c31)C2(C)C (configuration not stated),inconclusive: 114%
15,Cc1ccccc1-n1c(SCC(=O)N/N=C/c2ccccc2OCC(=O)O)nc2ccccc2c1=O,inconclusive: 128%
16,O=c1c2ccccc2nc(SCc2cccc(F)c2)n1Cc1ccco1,inactive: 122%
17,COc1ccc(-c2noc(=O)n2CC(=O)N2CCC(Cc3ccccc3)CC2)cc1,inactive: 97.3%
18,COc1cc(/C=N\Nc2ccc([N+](=O)[O-])cc2)ccc1OCC(=O)Nc1ccc(C)c(C)c1,inactive: 95.1%
19,NC(=S)Nc1cccc(Cl)c1,inconclusive: 79.3%

row,Structure (SMILES),binding response (% of control)
1,CN(C)/C=C(\C#N)S(=O)(=O)c1ccc(Cl)cc1,inconclusive: 95.4%
2,CCOC(=O)C1CCN(C(=O)Nc2c(-c3ccccc3)noc2C)CC1,inconclusive: 136%
3,CC(C)CN1CCC(=O)N([C@H](CSc2ccc(Br)cc2)c2ccccc2)CC1,inconclusive: 106%
4,CC(NC(=O)c1ccc2c(c1)OCO2)C(c1cccs1)N1CCN(c2ccccc2)CC1 (configuration not stated),inconclusive: 105%
5,C#CCOCCOCCOCCNc1nc(N2CCN(C(=O)[C@H](CCCCN)n3cc([C@@H](N)C(C)CC)nn3)CC2)nc(N2CCN(C(=O)[C@H](CCCCN)n3cc([C@@H](N)CC(C)C)nn3)CC2)n1 (some centres not stated),inactive: 107%
6,CSCCC(N=C(NS(=O)(=O)c1ccccc1)c1ccccc1)C(=O)O (configuration not stated),inconclusive: 102%
7,CCc1cccc(C)c1NC(=S)N(CCCN1CCOCC1)Cc1cccnc1,inactive: 101%
8,CCC(=O)Nc1cccc(C2=NOC3(C2)C[C@@H](C(N)=O)N(C(=O)CC)C3)c1 (some centres not stated),inconclusive: 113%
9,CC(C)(C)c1nc(Sc2ccc([N+](=O)[O-])cn2)n[nH]1,inconclusive: -86%
10,Cc1ccc(/C=C2\SC(N3CCN(C(c4ccccc4)c4ccccc4)CC3)=NC2=O)o1,inactive: 91.4%
11,COc1ccc(-n2nc(C(=O)NCC(=O)NCC3COc4ccccc4O3)c3ccccc3c2=O)cc1OC (configuration not stated),inconclusive: 104%
12,COc1ccccc1NS(=O)(=O)c1ccc(Cl)c(NC(=O)C(C)N2C(=O)c3ccccc3C2=O)c1 (configuration not stated),inactive: 91.4%
13,O=c1cc2c(=O)oc3cc(O)c(O)oc3c2c(O)c1O,inconclusive: 176%
14,CC(C)CC1C2C(=O)N(c3ccccc3)C(=O)C2ON1c1ccccc1 (configuration not stated),inconclusive: 97.9%
15,O=C(O)Cc1sc(-c2ccccc2Cl)nc1-c1ccccc1,inconclusive: 95.5%
16,O=C(CCCl)Nc1ccc(S(=O)(=O)NCc2ccco2)cc1,inconclusive: 95.5%
17,CC(=O)NS(=O)(=O)c1ccc(NC(=O)CN2C(=O)C3C4C=CC(C4)C3C2=O)cc1 (configuration not stated),inactive: 98.4%
18,O=C(Nc1cccc(S(=O)(=O)N2CCOCC2)c1)c1ccc(N2CCOCC2)c([N+](=O)[O-])c1,inactive: 97.4%
19,O=C(c1ccccc1)N1CCN(c2n[nH]c(=O)[nH]c2=O)CC1,inconclusive: 107%

row,Structure (SMILES),binding response (% of control)
1,O=C(Nc1ccccc1O)c1nc(Cl)ccc1Cl,inactive: 101%
2,Cc1ccc(NC(=O)C2=NNC(=O)CC2)cc1F,inconclusive: 257%
3,COc1ccc(OC)c(/C=N/NC(=O)CCc2c(C)n[nH]c2C)c1,inconclusive: 436%
4,O=c1oc2ccccc2nc1/C=C(\O)c1ccccc1,inconclusive: 111%
5,COc1ccc(-c2nn(-c3ccccc3)cc2C(=O)N/N=C/c2ccc([N+](=O)[O-])o2)cc1,inconclusive: 82.8%
6,COc1ccc(NC(=O)COC(=O)Cn2cnc3ccccc3c2=O)cc1OC,inconclusive: 104%
7,COC(=O)c1ccccc1NC(=O)c1ccc(F)cc1,inconclusive: 104%
8,NNc1ncnc2scc(-c3ccc(Cl)cc3)c12,inactive: 140%
9,CCCCn1nc(C(=O)Nc2cc(S(=O)(=O)N(C)C)ccc2C)c2ccccc2c1=O,inconclusive: 123%
10,NC1=NC[C@H](Cc2ccccc2)N1CCCCC1CCCCC1,inconclusive: 110%
11,CC(=O)Nc1ccc(-c2cc(C(=O)O)c3ccccc3n2)cc1,inconclusive: 96.3%
12,CN(C)S(=O)(=O)c1cccc(NC(=O)COC(=O)CCOc2ccccc2)c1,inconclusive: 98.9%
13,Cc1cc(Cl)c2cc3ccccc3cc2n1,inconclusive: 19.5%
14,COc1ccccc1/C=C/C(=O)Nc1cccc(S(=O)(=O)NC2=NCCCCC2)c1,inconclusive: 105%
15,CCc1nc2ccccc2n1CC(O)COCC1CC=CCC1 (configuration not stated),inconclusive: 102%
16,Cc1ccccc1C(=O)Nc1nnc(-c2cccnc2)o1,inconclusive: 83.3%
17,O=c1[nH]c2ccc(NC(=S)NCc3ccccc3)cc2[nH]1,inconclusive: 119%
18,Cc1cc(NC(=O)c2cccs2)no1,inconclusive: 87.4%
19,CC(=O)N/N=C(\C)C1COc2ccccc2O1 (configuration not stated),inconclusive: 107%

# Five records picked at random from the list so far:
row,Structure (SMILES),binding response (% of control)
11,CC(=O)Nc1ccc(-c2cc(C(=O)O)c3ccccc3n2)cc1,inconclusive: 96.3%
16,Cc1ccccc1C(=O)Nc1nnc(-c2cccnc2)o1,inconclusive: 83.3%
6,COc1ccc(NC(=O)COC(=O)Cn2cnc3ccccc3c2=O)cc1OC,inconclusive: 104%
4,O=c1oc2ccccc2nc1/C=C(\O)c1ccccc1,inconclusive: 111%
3,COc1ccc(OC)c(/C=N/NC(=O)CCc2c(C)n[nH]c2C)c1,inconclusive: 436%
